Assay results reported in patent US20200055871A1, “ACTIVATORS OF THE RETINOIC ACID INDUCIBLE GENE "RIG-I" PATHWAY AND METHODS OF USE THEREOF” (Kineta Immuno-Oncology LLC, priority 2018, published 2020).
At least one read-out could not be matched to a standard name with certainty.

What follows are molecules tested on IRF3-deficient THP1-Lucia™ ISG IRF3−/− cells (assay: THP1-Lucia ISG IRF3−/− reporter assay (IRF3-deficient control cells)). Conditions: compound 5 to 20 μM, 18 h.
Assay type: cell-based, human
Method: The promoter was comprised of five IFN-stimulated response elements (ISRE) fused to an ISG54 minimal promoter which is unresponsive to NF-kB or AP-1 pathways. […] The IRF3-deficient THP1-Lucia™ ISG IRF3−/−reporter cell line was generated by CRISPR technology from the parent THP1-Lucia™ ISG reporter cell line.
THP1-Lucia™ ISG cells and IRF3-deficient THP1-Lucia™ ISG IRF3−/−cells were differentiated with PMA (100 ng/ml) and stimulated with compounds at the indicated concentrations (5 to 20 μM), positive control, or not treated (background). Luciferase secretion was quantified using the QUANTI-Luc luciferase assay system (InvivoGen) 18 h after stimulation. Data are shown as fold increase luciferase activity over background in Table 7 and represent the IRF3-dependent ISG54 promoter activity by the THP1-Lucia™ ISG cells in response to compounds. […] The fold increase of compounds (10 μM, *20 μM, **5 μM) induced IRF3 dependent luciferase activity is indicated as follows: “≠” indicates less than 2.4 fold increase; “+” indicates a 2.4-4.9 fold increase; “++” indicates a 5-9.9 fold increase; “+++” indicates a 10-19 fold increase; “++++” indicates a 20-39 fold increase; “+++++” indicates greater than or equal to 40 fold increase.

SMILES	fold increase of luciferase activity, THP1 ISG IRF3−/−
O=C(Nc1nc2ccc3scnc3c2s1)c1ccc2cc(OCCCCN3CCOCC3)ccc2c1 [Example 39, N-{3,10-dithia-5,12-diazatricyclo[7.3.0.0^2,^6]dodeca-1,4,6,8,11-pentaen-4-yl}-6-[4-(morpholin-4-yl)butoxy]naphthalene-2-carboxamide]	− (less than 0.5 fold above baseline was considered below the level of quantitation)
Cc1nc2c(ccc3nc(NC(=O)c4ccc(N(C)C)cc4)sc32)s1 [Example 6, 4-(dimethylamino)-N-{11-methyl-3,10-dithia-5,12-diazatricyclo[7.3.0.0^2,^6]dodeca-1,4,6,8,11-pentaen-4-yl}benzamide]	− (less than 0.5 fold above baseline was considered below the level of quantitation)
O=C(Nc1nc2ccc3scnc3c2s1)c1cc2ccsc2cc1OCCN1CCOCC1 [Example 42, N-{3,10-dithia-5,12-diazatricyclo[7.3.0.0^2,^6]dodeca-1,4,6,8,11-pentaen-4-yl}-6-[2-(morpholin-4-yl)ethoxy]-1-benzothiophene-5-carboxamide]	− (less than 0.5 fold above baseline was considered below the level of quantitation)
O=C(Nc1nc2ccc3scnc3c2s1)c1ccc(Cl)c(C(F)(F)F)c1 [Example 7, 4-chloro-N-{3,10-dithia-5,12-diazatricyclo[7.3.0.0^2,^6]dodeca-1,4,6,8,11-pentaen-4-yl}-3-(trifluoromethyl)benzamide]	− (less than 0.5 fold above baseline was considered below the level of quantitation)
O=C(Nc1nc2ccc3scnc3c2s1)c1ccc(-c2ccccc2)cc1 [Example 21, N-{3,10-dithia-5,12-diazatricyclo[7.3.0.0^2,^6]dodeca-1,4,6,8,11-pentaen-4-yl}-[1,1′-biphenyl]-4-carboxamide]	− (less than 0.5 fold above baseline was considered below the level of quantitation)
COc1nc2c(ccc3nc(NC(=O)c4cc5ccccc5cc4OCCCCN4CCOCC4)sc32)s1 [Example 32, N-{11-methoxy-3,10-dithia-5,12-diazatricyclo[7.3.0.0^2,^6]dodeca-1,4,6,8,11-pentaen-4-yl}-3-[4-(morpholin-4-yl)butoxy]naphthalene-2-carboxamide]	− (less than 0.5 fold above baseline was considered below the level of quantitation)
CCN(CCO)CCOc1cc2ccccc2cc1C(=O)Nc1nc2ccc3scnc3c2s1 [Example 45, N-{3,10-Dithia-5,12-diazatricyclo[7.3.0.0^2,6]dodeca-1,4,6,8,11-pentaen-4-yl}-3-{2-[ethyl(2-hydroxyethyl)amino]ethoxy}naphthalene-2-carboxamide carboxamide]	− (less than 0.5 fold above baseline was considered below the level of quantitation)
O=C(Nc1nc2ccc3scnc3c2s1)c1ccc(-c2ccccc2)cc1OCCCCN1CCOCC1 [Example 38, N-{3,10-dithia-5,12-diazatricyclo[7.3.0.0^2,^6]dodeca-1,4,6,8,11-pentaen-4-yl}-3-[4-(morpholin-4-yl)butoxy]-[1,1′-biphenyl]-4-carboxamide]	− (less than 0.5 fold above baseline was considered below the level of quantitation)
O=C(Nc1nc2ccc3scnc3c2s1)c1cccc(C(F)(F)F)c1 [Example 8, N-{3,10-dithia-5,12-diazatricyclo[7.3.0.0^2,^6]dodeca-1,4,6,8,11-pentaen-4-yl}-3-(trifluoromethyl)benzamide]	− (less than 0.5 fold above baseline was considered below the level of quantitation)
O=C(Nc1nc2ccc3scnc3c2s1)c1cc2c(cc1OCCN1CCOCC1)OCO2 [Example 40, N-{3,10-dithia-5,12-diazatricyclo[7.3.0.0^2,^6]dodeca-1,4,6,8,11-pentaen-4-yl}-6-[2-(morpholin-4-yl)ethoxy]-2H-1,3-benzodioxole-5-carboxamide]	− (less than 0.5 fold above baseline was considered below the level of quantitation)
O=C(Nc1nc2ccc3scnc3c2s1)c1cc2ccccc2s1 [Example 11, N-{3,10-dithia-5,12-diazatricyclo[7.3.0.0^2,^6]dodeca-1,4,6,8,11-pentaen-4-yl}-1-benzothiophene-2-carboxamide]	− (less than 0.5 fold above baseline was considered below the level of quantitation)
CCN(CC)S(=O)(=O)c1ccc(C(=O)Nc2nc3ccc4sc(C)nc4c3s2)cc1 [Example 3, 4-(diethylsulfamoyl)-N-{11-methyl-3,10-dithia-5,12-diazatricyclo[7.3.0.0^2,^6]dodeca-1,4,6,8,11-pentaen-4-yl}benzamide]	− (less than 0.5 fold above baseline was considered below the level of quantitation)
CCc1nc2c(ccc3nc(NC(=O)c4ccc5ccccc5c4)sc32)s1 [Example 18, N-{11-ethyl-3,10-dithia-5,12-diazatricyclo[7.3.0.0^2,^6]dodeca-1,4,6,8,11-pentaen-4-yl}naphthalene-2-carboxamide]	− (less than 0.5 fold above baseline was considered below the level of quantitation)
Cc1nc2c(ccc3nc(NC(=O)c4ccc5ccccc5c4)sc32)s1 [Example 23, N-{11-methyl-3,10-dithia-5,12-diazatricyclo[7.3.0.0^2,^6]dodeca-1,4,6,8,11-pentaen-4-yl}naphthalene-2-carboxamide]	− (less than 0.5 fold above baseline was considered below the level of quantitation)
COc1nc2c(ccc3nc(NC(=O)c4cc5ccccc5cc4OCCN4CCCCC4)sc32)s1 [Example 30, N-{11-methoxy-3,10-dithia-5,12-diazatricyclo[7.3.0.0^2,^6]dodeca-1,4,6,8,11-pentaen-4-yl}-3-[2-(piperidin-1-yl)ethoxy]naphthalene-2-carboxamide]	− (less than 0.5 fold above baseline was considered below the level of quantitation)
O=C(Nc1nc2ccc3scnc3c2s1)c1cc2c(cc1OCCCCN1CCOCC1)OCO2 [Example 41, N-{3,10-dithia-5,12-diazatricyclo[7.3.0.0^2,^6]dodeca-1,4,6,8,11-pentaen-4-yl}-6-[4-(morpholin-4-yl)butoxy]-2H-1,3-benzodioxole-5-carboxamide]	− (less than 0.5 fold above baseline was considered below the level of quantitation)
O=C(Nc1nc2ccc3scnc3c2s1)c1cc2ccccc2cc1OCCN1CCNCC1 [Example 47, N-{3,10-Dithia-5,12-diazatricyclo[7.3.0.0^2,6]dodeca-1,4,6,8,11-pentaen-4-yl}-3-[2-(piperazin-1-yl)ethoxy]naphthalene-2-carboxamide]	− (less than 0.5 fold above baseline was considered below the level of quantitation)
O=C(Nc1nc2ccc3scnc3c2s1)c1cc2ccccc2cc1OCCNCCO [Example 46, N-{3,10-dithia-5,12-diazatricyclo[7.3.0.0^2,^6]dodeca-1,4,6,8,11-pentaen-4-yl}-3-{2-[(2-hydroxyethyl)amino]ethoxy}naphthalene-2-carboxamide]	− (less than 0.5 fold above baseline was considered below the level of quantitation)
O=C(Nc1nc2ccc3scnc3c2s1)c1cc2ccccc2cc1OCCN1CCCCC1 [Example 25, N-{3,10-dithia-5,12-diazatricyclo[7.3.0.0^2,^6]dodeca-1,4,6,8,11-pentaen-4-yl}-3-[2-(piperidin-1-yl)ethoxy]naphthalene-2-carboxamide]	− (less than 0.5 fold above baseline was considered below the level of quantitation)
COc1nc2c(ccc3nc(NC(=O)c4cc5ccccc5cc4OCCN4CCOCC4)sc32)s1 [Example 29, N-{11-methoxy-3,10-dithia-5,12-diazatricyclo[7.3.0.0^2,^6]dodeca-1,4,6,8,11-pentaen-4-yl}-3-[2-(morpholin-4-yl)ethoxy]naphthalene-2-carboxamide]	− (less than 0.5 fold above baseline was considered below the level of quantitation)
O=C(Nc1nc2ccc3scnc3c2s1)c1cccc([N+](=O)[O-])c1 [Example 9, N-{3,10-dithia-5,12-diazatricyclo [7.3.0.0^2,^6]dodeca-1,4,6,8,11-pentaen-4-yl}-3-nitrobenzamide]	− (less than 0.5 fold above baseline was considered below the level of quantitation)
Cn1c(C(=O)Nc2nc3ccc4scnc4c3s2)cc2ccccc21 [Example 17, N-{3,10-dithia-5,12-diazatricyclo[7.3.0.0^2,^6]dodeca-1,4,6,8,11-pentaen-4-yl}-1-methyl-1H-indole-2-carboxamide]	− (less than 0.5 fold above baseline was considered below the level of quantitation)
Cn1ccc2ccc(C(=O)Nc3nc4ccc5scnc5c4s3)cc21 [Example 20, N-{3,10-dithia-5,12-diazatricyclo[7.3.0.0^2,^6]dodeca-1,4,6,8,11-pentaen-4-yl}-1-methyl-1H-indole-6-carboxamide]	− (less than 0.5 fold above baseline was considered below the level of quantitation)
